Measured values from publication PMC9026428 (Pharmaceutics, 2022).

Experiments:
Candida albicans B3 = system: Candida albicans B3
Description: (§1) The assessment of antifungal potential of synthesized agents was carried out using four reference strains (C. albicans ATCC 10231, C. albicans SC5314, C. glabrata DSM […] and C. krusei DSM […]) and six clinical isolates of fluconazole-resistant C. albicans that were provided by the Hospital of Medical University of Gdansk, Poland. Moreover, four C. albicans isolates, assigned as B3, B4, Gu4 and Gu5, were used for investigation whether the synthesized fluconazole derivatives were effectively removed from the yeast cells by the drug efflux transporters, as in the case of fluconazole. These strains were kindly provided by Prof. Joachim Morschhäuser from University of Würzburg (Würzburg, Germany). Strains Gu4 and B3 were fluconazole-sensitive isolates obtained from early infection episodes, while Gu5 and B4 were the corresponding fluconazole-resistant isolates obtained from later episodes in the same patients treated with fluconazole. The lack of susceptibility of the Gu5 strain to fluconazole was a consequence of overexpression of CDR1/2 genes encoding ABC transporters, whereas the resistance of B4 strain was caused by overexpression of the MDR1 gene encoding a membrane transport protein of the major facilitator superfamily (MFS). All of these Candida spp. strains were maintained on YPD agar plates (1% (w/v) yeast extract, 2% (w/v) peptone, 2% (w/v) glucose, 2% (w/v) agar) at 30 °C for 16–24 h. For all of the assays aimed at assessing the antifungal potential of the synthesized agents, the yeasts were cultivated at 37 °C in RPMI 1640 medium (with L-glutamine, without sodium bicarbonate, Sigma-Aldrich, Darmstadt, Germany)) buffered to a pH of 7.0 with 0.165 M morpholinepropanesulfonic acid (MOPS) buffer (Sigma-Aldrich). In this study, we used the human foreskin fibroblast cell line Hs27 (ATCC CRL 1634TM) and the human endothelial cell line HUVEC (C2519A), purchased from Lonza Group AG, (Basel, Switzerland). The Hs27 cells were maintained in cell media consisting of Dulbecco’s modified Eagles medium (DMEM), (Corning, Arizona, USA) with 10% fetal bovine serum (FBS), (Corning, Port Elizabeth, South Africa), 1% penicillin/streptomycin (Sigma-Aldrich Inc., Darmstadt, Germany), and 1% L-glutamine (Corning, Arizona, USA). The human endothelial cell line was maintained in cell media consisting of Endothelial Cell Growth Medium-2 Single Quots Kit (Lonza, USA). Both cell lines were cultured in an incubator at 37 °C and 5% CO2.
(§2) Antifungal activity of the tested compounds against yeast cells was determined in 96-well plates as described in the CLSI document M27-A3 [39], with minor modifications (CLSI, 2008). […] The plates were incubated for 24 h at 37 °C. Each test was performed in triplicate. The final concentration of DMSO was ensured to be around 1% in all experiments.
(§3) For determination of minimum fungicidal concentrations (MFC), small aliquots of suspensions (around 10 μL) from each well were transferred using the pipette to YPD agar plates without inhibitors and incubated for 24 h at 37 °C.

Candida albicans Gu5 = system: Candida albicans Gu5
Description: as §1, §2, §3

Candida albicans 48 = system: Candida albicans 48
Description: as §1, §2, §3

[1] = system: Candida glabrata DSM 6128
Description: as §1, §2, §3

Candida albicans 190 = system: Candida albicans 190
Description: as §1, §2, §3

[2] = system: Candida albicans ATCC 10231
Description: as §1, §2, §3

Candida albicans 247 = system: Candida albicans 247
Description: as §1, §2, §3

Candida albicans 138 = system: Candida albicans 138
Description: as §1, §2, §3

Candida albicans B4 = system: Candida albicans B4
Description: as §1, §2, §3

Candida krusei DSM 11226 = system: Candida krusei DSM 11226
Description: as §1, §2, §3

Candida albicans Gu4 = system: Candida albicans Gu4
Description: as §1, §2, §3

Candida albicans 574 = system: Candida albicans 574
Description: as §1, §2, §3

Candida albicans SC 5314 = system: Candida albicans SC 5314
Description: as §1, §2, §3

Candida albicans 604 = system: Candida albicans 604
Description: as §1, §2, §3

What does the source list for CC[C@H](C)[C@H](NC(=O)[C@H](CCCCN)NC(=O)[C@H](CCCCN)NC(=O)[C@H](C)NC(=O)[C@H](CC(C)C)NC(=O)[C@H](C)NC(=O)[C@H](C)NC(=O)[C@H](CC(C)C)NC(=O)[C@H](C)NC(=O)[C@H](CCCCN)NC(=O)[C@H](CC(C)C)NC(=O)[C@H](CC(N)=O)NC(=O)[C@@H](NC(=O)[C@H](CCCCN)NC(=O)CNC(=O)[C@H](CC(C)C)NC(=O)[C@H](CC(C)C)NC(=O)[C@H](Cc1ccc(O)cc1)NC(=O)CNC(=O)[C@H](C)NC(=O)CCCC(=O)OC(Cn1cncn1)(Cn1cncn1)c1ccc(F)cc1F)[C@@H](C)CC)C(=O)N[C@@H](CC(C)C)C(N)=O [FLCpOH-TP10-NH2]?
Selectivity index (SI) (Candida albicans B3; IC90 HUVEC (72 h) / MIC50 (24 h) Candida albicans B3): 1.12; Selectivity index (SI) (Candida albicans B3; IC90 Hs27 (72 h) / MIC50 (24 h) Candida albicans B3): 0.92; Selectivity index (SI) (Candida albicans Gu5; IC90 HUVEC (72 h) / MIC50 (24 h) Candida albicans Gu5): 0.55; Selectivity index (SI) (Candida albicans Gu5; IC90 Hs27 (72 h) / MIC50 (24 h) Candida albicans Gu5): 0.46; Selectivity index (SI) (Candida albicans 48; IC90 HUVEC (72 h) / MIC50 (24 h) Candida albicans 48): 0.76; Selectivity index (SI) (Candida albicans 48; IC90 Hs27 (72 h) / MIC50 (24 h) Candida albicans 48): 0.64; Selectivity index (SI) ([1]; IC90 HUVEC (72 h) / MIC50 (24 h) Candida glabrata DSM 6128): 0.55; Selectivity index (SI) ([1]; IC90 Hs27 (72 h) / MIC50 (24 h) Candida glabrata DSM 6128): 0.46; Selectivity index (SI) (Candida albicans 190; IC90 HUVEC (72 h) / MIC50 (24 h) Candida albicans 190): 0.76; Selectivity index (SI) (Candida albicans 190; IC90 Hs27 (72 h) / MIC50 (24 h) Candida albicans 190): 0.64; Selectivity index (SI) ([2]; IC90 HUVEC (72 h) / MIC50 (24 h) Candida albicans ATCC 10231): 2.29; Selectivity index (SI) ([2]; IC90 Hs27 (72 h) / MIC50 (24 h) Candida albicans ATCC 10231): 1.92; Selectivity index (SI) (Candida albicans 247; IC90 HUVEC (72 h) / MIC50 (24 h) Candida albicans 247): 0.76; Selectivity index (SI) (Candida albicans 247; IC90 Hs27 (72 h) / MIC50 (24 h) Candida albicans 247): 0.64; Selectivity index (SI) (Candida albicans 138; IC90 HUVEC (72 h) / MIC50 (24 h) Candida albicans 138): 0.76; Selectivity index (SI) (Candida albicans 138; IC90 Hs27 (72 h) / MIC50 (24 h) Candida albicans 138): 0.64; Selectivity index (SI) (Candida albicans B4; IC90 HUVEC (72 h) / MIC50 (24 h) Candida albicans B4): 0.55; Selectivity index (SI) (Candida albicans B4; IC90 Hs27 (72 h) / MIC50 (24 h) Candida albicans B4): 0.46; Selectivity index (SI) (Candida krusei DSM 11226; IC90 HUVEC (72 h) / MIC50 (24 h) Candida krusei DSM 11226): 0.55; Selectivity index (SI) (Candida krusei DSM 11226; IC90 Hs27 (72 h) / MIC50 (24 h) Candida krusei DSM 11226): 0.46; Selectivity index (SI) (Candida albicans Gu4; IC90 HUVEC (72 h) / MIC50 (24 h) Candida albicans Gu4): 0.76; Selectivity index (SI) (Candida albicans Gu4; IC90 Hs27 (72 h) / MIC50 (24 h) Candida albicans Gu4): 0.64; Selectivity index (SI) (Candida albicans 574; IC90 HUVEC (72 h) / MIC50 (24 h) Candida albicans 574): 0.76; Selectivity index (SI) (Candida albicans 574; IC90 Hs27 (72 h) / MIC50 (24 h) Candida albicans 574): 0.64; Selectivity index (SI) (Candida albicans SC 5314; IC90 HUVEC (72 h) / MIC50 (24 h) Candida albicans SC 5314): 4.29; Selectivity index (SI) (Candida albicans SC 5314; IC90 Hs27 (72 h) / MIC50 (24 h) Candida albicans SC 5314): 3.60; Selectivity index (SI) (Candida albicans 604; IC90 HUVEC (72 h) / MIC50 (24 h) Candida albicans 604): 0.76; Selectivity index (SI) (Candida albicans 604; IC90 Hs27 (72 h) / MIC50 (24 h) Candida albicans 604): 0.64

Where two headings read alike, the source gives them in different places.
